From US20140235701 come the findings set out here.

Amino acid sequences for entries named in this document (tags omitted). Residues count along the entry.
UniProt P34130, 81-210: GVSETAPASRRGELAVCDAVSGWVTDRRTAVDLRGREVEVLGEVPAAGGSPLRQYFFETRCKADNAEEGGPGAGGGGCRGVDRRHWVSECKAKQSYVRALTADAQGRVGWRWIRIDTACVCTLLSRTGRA
UniProt P01138, 122-241: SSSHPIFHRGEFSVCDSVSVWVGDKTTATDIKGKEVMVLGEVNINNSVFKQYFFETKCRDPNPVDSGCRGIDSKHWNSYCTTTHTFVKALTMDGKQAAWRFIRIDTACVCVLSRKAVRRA

For one data set, the target named is NT-4 (neurotrophin-4) (UniProt P34130). Briefly: SPR. The note with it: 2'-OH G, purified recombinant protein, protein details: R&D Systems.
The next data set has as its target T1, NT-3 (neurotrophin-3) (UniProt P20783).
T1 sequence (looked up, limits assumed): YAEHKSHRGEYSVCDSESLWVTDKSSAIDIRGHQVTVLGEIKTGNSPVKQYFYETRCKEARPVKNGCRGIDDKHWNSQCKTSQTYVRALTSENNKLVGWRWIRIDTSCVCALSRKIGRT
In words: SPR. The note with it: 2'-OH G, purified recombinant protein, protein details: R&D Systems.

Data set [1] addresses NGF (nerve growth factor) (Homo sapiens) (UniProt P01138). Briefly: activity in cells. The conditions noted are these: 2'-F C and U; 2'-OH G; 2'-H (deoxy) A; TF-1 cell proliferation inhibition; purified recombinant protein; protein details: R&D Systems.

For some of these results: The comparison behind a weaker result is the experiment's own reference, which may not be listed here. For some of these results: Protein sequences can lack the tags named with them.

Consider “GGGUCCUGACGUAUAGUUUCCGUCUGUAUGUCUGUUACCC [SEQ ID NO: 101]”, for which the binding result with NT-4 (neurotrophin-4) (2'-F C and U, 2'-H (deoxy) A, weak binding to NT-4) is “binds more weakly”; with NT-3 (neurotrophin-3) (2'-F C and U, 2'-H (deoxy) A, weak binding to NT-3) it was “binds more weakly”.

For the sequence “GGGUCCUGAGCAAGAGUUUCCGUCUCAUGCUCUGUUACCC [SEQ ID NO: 102]”, the binding result in the data set with NT-4 (neurotrophin-4) (2'-F C/U, dA, weak) is listed as “binds more weakly”; with NT-3 (neurotrophin-3) (2'-F C/U, dA, weak), “binds more weakly”.

As for “GGGUCCUGUCGCUAAGUUUCCGUCUUUGCGGCUGUUACCC [SEQ ID NO: 84]”, the half-maximal inhibitory concentration (IC50) in data set [1] is more than 0.01 µM.

For “GGGUCCUGUCUAAGAGUUUCCGUCUCGUAGACUGUUACCC [SEQ ID NO: 111]”, the binding result with NT-4 (neurotrophin-4) (2'-F C and U, 2'-H (deoxy) A, scarcely bound to NT-4) is on record as “binds more weakly”; in the data set with NT-3 (neurotrophin-3) (2'-F C and U, 2'-H (deoxy) A, scarcely bound to NT-3), “binds more weakly”.

Usually IC50 stands for the concentration at which inhibition is half-maximal.
